pIC50: −log10 of the molar value. Structures can show the parent of a compound that is named as a salt. Some results were stated once for a whole list of compounds, not compound by compound. At least one structure is not confirmed: it was looked up by name or label, or the drawing left a doubt.
System: TNF-stimulated IL8 production by human neutrophils
Experiment: TNF-stimulated IL-8 production from human neutrophils;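 also: IL-8 in cell-free supernatant quantified by sandwich ELISA, inhibition calculated against a compound-free control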
Type: cell-based
Details: TNF 100 ng/ml, about 20 hrs, screened up to 100 nM; result in words; call rule not given here

Q: How did the “activity (IC50) against TNF-stimulated IL-8 production from human neutrophils” value (from here on “activity (IC50)”) turn out when `CCCNC(=O)c1ccc(C)c(-c2nc(NCCCN(CC)CC)nc3c2ccc(=O)n3-c2c(F)cccc2F)c1` [Example 122, 3-[2-{[3-(diethylamino)propyl]amino}-8-(2,6-difluorophenyl)-7-oxo-7,8-dihydropyrido[2,3-d]pyrimidin-4-yl]-4-methyl-N-propylbenzamide] was run?
A: active

Q: How did the “activity (IC50)” value turn out when `CCCCNC(=O)c1ccc(C)c(-c2nc(NCCCN(CC)CC)nc3c2ccc(=O)n3-c2c(F)cccc2F)c1` [Example 123, N-butyl-3-[2-{[3-(diethylamino)propyl]amino}-8-(2,6-difluorophenyl)-7-oxo-7,8-dihydropyrido[2,3-d]pyrimidin-4-yl]-4-methylbenzamide] was run?
A: active

Q: How did the “activity (IC50)” value turn out when `CCN(CC)CCCNc1nc(-c2cc(C(=O)NCC(C)C)ccc2C)c2ccc(=O)n(-c3c(F)cccc3F)c2n1` [Example 124, 3-[2-{[3-(diethylamino)propyl]amino}-8-(2,6-difluorophenyl)-7-oxo-7,8-dihydropyrido[2,3-d]pyrimidin-4-yl]-4-methyl-N-(2-methylpropyl)benzamide] was run?
A: active

Q: For `CCN(CC)CCCNc1nc(-c2cc(C(=O)NC3CCCC3)ccc2C)c2ccc(=O)n(-c3c(F)cccc3F)c2n1` [Example 125, N-cyclopentyl-3-[2-{[3-(diethylamino)propyl]amino}-8-(2,6-difluorophenyl)-7-oxo-7,8-dihydropyrido[2,3-d]pyrimidin-4-yl]-4-methylbenzamide], which “activity (IC50)” value is on record?
A: active

Q: Which “activity (IC50)” value does the source give for `CCN(CC)CCCNc1nc(-c2cc(C(=O)NC(C)(C)C)ccc2C)c2ccc(=O)n(-c3c(F)cccc3F)c2n1` [Example 126, 3-[2-{[3-(diethylamino)propyl]amino}-8-(2,6-difluorophenyl)-7-oxo-7,8-dihydropyrido[2,3-d]pyrimidin-4-yl]-N-(1,1-dimethylethyl)-4-methylbenzamide] here?
A: active

Q: `CCN(CC)CCCNc1nc(-c2cc(C(=O)NCC(C)(C)C)ccc2C)c2ccc(=O)n(-c3c(F)cccc3F)c2n1` [Example 127, 3-[2-{[3-(diethylamino)propyl]amino}-8-(2,6-difluorophenyl)-7-oxo-7,8-dihydropyrido[2,3-d]pyrimidin-4-yl]-N-(2,2-dimethylpropyl)-4-methylbenzamide] was tested. Which “activity (IC50)” value did it give?
A: active

Q: Which “activity (IC50)” value does the source give for `CCN(CC)CCCNc1nc(-c2cc(C(=O)NCC(F)(F)F)ccc2C)c2ccc(=O)n(-c3c(F)cccc3F)c2n1` [Example 128, 3-[2-{[3-(diethylamino)propyl]amino}-8-(2,6-difluorophenyl)-7-oxo-7,8-dihydropyrido[2,3-d]pyrimidin-4-yl]-4-methyl-N-(2,2,2-trifluoroethyl)benzamide] here?
A: active

Q: How did the “activity (IC50)” value turn out when `CCNC(=O)c1ccc(C)c(-c2nc(NCCCN(CC)CC)nc3c2ccc(=O)n3-c2c(F)cccc2F)c1` [Example 129, 3-[2-{[3-(diethylamino)propyl]amino}-8-(2,6-difluorophenyl)-7-oxo-7,8-dihydropyrido[2,3-d]pyrimidin-4-yl]-N-ethyl-4-methylbenzamide] was run?
A: active

Q: With `CCN(CC)CCCNc1nc(-c2cc(C(=O)NCC3CCCC3)ccc2C)c2ccc(=O)n(-c3c(F)cccc3F)c2n1` [Example 132, N-(cyclopentylmethyl)-3-[2-{[3-(diethylamino)propyl]amino}-8-(2,6-difluorophenyl)-7-oxo-7,8-dihydropyrido[2,3-d]pyrimidin-4-yl]-4-methylbenzamidetrifluoroacetate] as the compound, how does the “activity (IC50)” value read?
A: active

Q: Which “activity (IC50)” value does the source give for `CCN(CC)CCCNc1nc(-c2cc(C(=O)NCCF)ccc2C)c2ccc(=O)n(-c3c(F)cccc3F)c2n1` [Example 133, 3-[2-{[3-(diethylamino)propyl]amino}-8-(2,6-difluorophenyl)-7-oxo-7,8-dihydropyrido[2,3-d]pyrimidin-4-yl]-N-(2-fluoroethyl)-4-methylbenzamidetrifluoroacetate] here?
A: active

Q: Which “activity (IC50)” value does the source give for `CCN(CC)CCCNc1nc(-c2cc(C(=O)NCCOC)ccc2C)c2ccc(=O)n(-c3c(F)cccc3F)c2n1` [Example 134, 3-[2-{[3-(diethylamino)propyl]amino}-8-(2,6-difluorophenyl)-7-oxo-7,8-dihydropyrido[2,3-d]pyrimidin-4-yl]-4-methyl-N-[2-(methyloxy)ethyl]benzamidetrifluoroacetate] here?
A: active

Q: With `CCN(CC)CCCNc1nc(-c2cc(C(=O)NCC3CCCCC3)ccc2C)c2ccc(=O)n(-c3c(F)cccc3F)c2n1` [Example 135, N-(cyclohexylmethyl)-3-[2-{[3-(diethylamino)propyl]amino}-8-(2,6-difluorophenyl)-7-oxo-7,8-dihydropyrido[2,3-d]pyrimidin-4-yl]-4-methylbenzamidetrifluoroacetate] as the compound, how does the “activity (IC50)” value read?
A: active

Q: How did the “activity (IC50)” value turn out when `CCN(CC)CCCNc1nc(-c2cc(C(=O)NCc3ccc(C)o3)ccc2C)c2ccc(=O)n(-c3c(F)cccc3F)c2n1` [Example 136, 3-[2-{[3-(diethylamino)propyl]amino}-8-(2,6-difluorophenyl)-7-oxo-7,8-dihydropyrido[2,3-d]pyrimidin-4-yl]-4-methyl-N-[(5-methyl-2-furanyl)methyl]benzamide trifluoroacetate] was run?
A: active

Q: With `CCN(CC)CCCNc1nc(-c2cc(C(=O)NC3CCC3)ccc2C)c2ccc(=O)n(-c3c(F)cccc3F)c2n1` [Example 137, N-cyclobutyl-3-[2-{[3-(diethylamino)propyl]amino}-8-(2,6-difluorophenyl)-7-oxo-7,8-dihydropyrido[2,3-d]pyrimidin-4-yl]-4-methylbenzamide trifluoroacetate] as the compound, how does the “activity (IC50)” value read?
A: active

Q: With `CCN(CC)CCCNc1nc(-c2cc(C(=O)NCC3CC3)ccc2C)c2ccc(=O)n(-c3c(F)cccc3F)c2n1` [Example 138, N-(cyclopropylmethyl)-3-[2-{[3-(diethylamino)propyl]amino}-8-(2,6-difluorophenyl)-7-oxo-7,8-dihydropyrido[2,3-d]pyrimidin-4-yl]-4-methylbenzamide trifluoroacetate] as the compound, how does the “activity (IC50)” value read?
A: active

Q: For `CCN(CC)CCCNc1nc(-c2cc(C(=O)NCc3cccs3)ccc2C)c2ccc(=O)n(-c3c(F)cccc3F)c2n1` [Example 139, 3-[2-{[3-(diethylamino)propyl]amino}-8-(2,6-difluorophenyl)-7-oxo-7,8-dihydropyrido[2,3-d]pyrimidin-4-yl]-4-methyl-N-(2-thienylmethyl)benzamide trifluoroacetate], which “activity (IC50)” value is on record?
A: active

Q: For `CCN(CC)CCCNc1nc(-c2cc(C(=O)N(CC)CC)ccc2C)c2ccc(=O)n(-c3c(F)cccc3F)c2n1` [Example 140, 3-[2-{[3-(diethylamino)propyl]amino}-8-(2,6-difluorophenyl)-7-oxo-7,8-dihydropyrido[2,3-d]pyrimidin-4-yl]-N,N-diethyl-4-methylbenzamide trifluoroacetate], which “activity (IC50)” value is on record?
A: active

Q: Which “activity (IC50)” value does the source give for `CCN(CC)CCCNc1nc(-c2cc(C(=O)NCC3CCOCC3)ccc2C)c2ccc(=O)n(-c3c(F)cccc3F)c2n1` [Example 141, 3-[2-{[3-(diethylamino)propyl]amino}-8-(2,6-difluorophenyl)-7-oxo-7,8-dihydropyrido[2,3-d]pyrimidin-4-yl]-4-methyl-N-(tetrahydro-2H-pyran-4-ylmethyl)benzamide trifluoroacetate] here?
A: active

Q: For `CCN(CC)CCCNc1nc(-c2cc(C(=O)NCC3CCCO3)ccc2C)c2ccc(=O)n(-c3c(F)cccc3F)c2n1` (stereo not drawn) [Example 142, 3-[2-{[3-(diethylamino)propyl]amino}-8-(2,6-difluorophenyl)-7-oxo-7,8-dihydropyrido[2,3-d]pyrimidin-4-yl]-4-methyl-N-(tetrahydro-2-furanylmethyl)benzamide trifluoroacetate], which “activity (IC50)” value is on record?
A: active

Q: `CCN(CC)CCCNc1nc(-c2cc(C(=O)NC3CCCCC3)ccc2C)c2ccc(=O)n(-c3c(F)cccc3F)c2n1` [Example 143, N-cyclohexyl-3-[2-{[3-(diethylamino)propyl]amino}-8-(2,6-difluorophenyl)-7-oxo-7,8-dihydropyrido[2,3-d]pyrimidin-4-yl]-4-methylbenzamide] was tested. Which “activity (IC50)” value did it give?
A: active

Q: With `CCSCCNC(=O)c1ccc(C)c(-c2nc(NCCCN(CC)CC)nc3c2ccc(=O)n3-c2c(F)cccc2F)c1` [Example 144, 3-[2-{[3-(diethylamino)propyl]amino}-8-(2,6-difluorophenyl)-7-oxo-7,8-dihydropyrido[2,3-d]pyrimidin-4-yl]-N-[2-(ethylthio)ethyl]-4-methylbenzamide] as the compound, how does the “activity (IC50)” value read?
A: active

Q: Which “activity (IC50)” value does the source give for `CCN(CC)CCCNc1nc(-c2cc(C(=O)NCCC#N)ccc2C)c2ccc(=O)n(-c3c(F)cccc3F)c2n1` [Example 145, N-(2-cyanoethyl)-3-[2-{[3-(diethylamino)propyl]amino}-8-(2,6-difluorophenyl)-7-oxo-7,8-dihydropyrido[2,3-d]pyrimidin-4-yl]-4-methylbenzamide] here?
A: active

Q: Which “activity (IC50)” value does the source give for `CCN(CC)CCCNc1nc(-c2cc(C(=O)Nc3ccccc3)ccc2C)c2ccc(=O)n(-c3c(F)cccc3F)c2n1` [Example 147, 3-[2-{[3-(diethylamino)propyl]amino}-8-(2,6-difluorophenyl)-7-oxo-7,8-dihydropyrido[2,3-d]pyrimidin-4-yl]-4-methyl-N-phenylbenzamide] here?
A: active

Same assay, conditions: TNF 100 ng/ml, about 20 hrs; bounds reflect the top concentration screened; for 202(c) and 120 a range over multiple runs with ends given as 'greater than'

Q: With `CCN(CC)CCCNc1nc(-c2cc(C(=O)NCCc3c[nH]cn3)ccc2C)c2ccc(=O)n(-c3c(F)cccc3F)c2n1` [Example 146, 3-[2-{[3-(diethylamino)propyl]amino}-8-(2,6-difluorophenyl)-7-oxo-7,8-dihydropyrido[2,3-d]pyrimidin-4-yl]-N-[2-(1H-imidazol-4-yl)ethyl]-4-methylbenzamide] as the compound, how does the pIC50 read?
A: < 7.00

From US20100144755A1 (Glaxo Group Limited, priority 2006, published 2010)
